Test results from US8476455B2, “1-N-phenyl-amino-1h-imidazole derivatives and pharmaceutical compositions containing them” (Laboratoire Theramex, priority 2003, dated 2013).

Key:
human aromatase [1] = molecular target: T1, human aromatase (Homo sapiens, UniProt P11511); experiment: Dual aromatase and steroid sulfatase activities in JEG-3 cells: aromatase readout; assay type: cell-based; conditions: footnote c: dual aromatase and sulfatase activity, nd: not detected, read-out: Aromatase activity IC50 (nM) ± S.E.M.
T1 construct: The JEG-3 cell line, derived from a human placental choriocarcinoma, constitutively overexpresses human aromatase; endogenous in cells; host or cells: JEG-3 (human placental choriocarcinoma)
T1 sequence (P11511 1-503): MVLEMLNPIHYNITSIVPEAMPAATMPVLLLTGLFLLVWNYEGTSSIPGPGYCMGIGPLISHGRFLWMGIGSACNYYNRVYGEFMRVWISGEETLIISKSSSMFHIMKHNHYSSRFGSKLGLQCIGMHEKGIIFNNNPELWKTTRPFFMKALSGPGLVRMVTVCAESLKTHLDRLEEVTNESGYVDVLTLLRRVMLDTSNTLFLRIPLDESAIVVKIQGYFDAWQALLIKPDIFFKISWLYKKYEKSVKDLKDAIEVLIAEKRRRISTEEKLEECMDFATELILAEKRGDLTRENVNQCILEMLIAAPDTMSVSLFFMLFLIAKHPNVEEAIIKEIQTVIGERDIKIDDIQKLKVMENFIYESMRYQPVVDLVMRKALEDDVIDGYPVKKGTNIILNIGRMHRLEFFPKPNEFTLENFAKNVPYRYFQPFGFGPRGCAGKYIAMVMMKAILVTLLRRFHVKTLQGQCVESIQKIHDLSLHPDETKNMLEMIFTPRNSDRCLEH
Procedure: The JEG-3 cell line is intrinsically very rich in human estrone sulfatase and therefore is a useful biological system to evaluate new steroid sulfatase inhibitors in vitro. Assays were carried out with cells in logarithmic growth phase on 96-well microplates. 24 h before studies, cells were seeded in decomplemented fetal calf serum (dFCS) supplemented medium. The medium was removed 24 h later and cells were rinsed with PBS to eliminate any trace of dFCS. Then, ^3H-E1S was added in dFCS free medium, followed by test compounds at concentrations ranging from 10^−12 M to 10^−5 M. After 4 h of treatment, the medium was transferred into 96-deep-well microplates and centrifuged at 200×g for 10 min to pellet cells before toluene extraction. A fraction of the medium was used for toluene extraction in order to separate the conjugated substrate from non-conjugated products. The radioactivity in the toluene phase was measured by liquid scintillation counting. In parallel, after cell solubilization in a ethylenediamine tetraacetate solution, DNA content was measured by a standard fluorimetric method using the Hoechst 33258 fluorochrome. Finally, estrone sulfatase activity was expressed in pmoles of ^3H-E1+^3H-E2 formed/4 hours/mg DNA and estrone sulfatase inhibition as a percentage of control activity without inhibitor. […]

human aromatase [2] = molecular target: T1, human aromatase; experiment: Aromatase activity alone, tritiated water method in JEG-3 cells; assay type: cell-based; conditions: footnote a: aromatase activity alone, nd: not detected, read-out: Aromatase activity IC50 (nM) ± S.E.M.
Procedure: The JEG-3 cell line, derived from a human placental choriocarcinoma, constitutively overexpresses human aromatase and represents a relevant model for assaying putative aromatase inhibitors in vitro. Aromatase activity was determined by the tritiated water method. In brief, cells were first seeded into 96-well microplates in decomplemented fetal calf serum (dFCS) supplemented medium. 24 hours later, cells were rinsed and fresh medium containing 1β-^3H-androstenedione as aromatase substrate was added together with test compounds at concentrations ranging from 10^−12 M to 10^−5 M. After 2 hours of incubation, a fraction of the medium was transferred to homologous new 96-well microplates and a dextran-coated charcoal solution was added to each well. Following standing on ice for 10 minutes, microplates were centrifuged (1500 g; 4° C.). All steroids, including the radioactive substrate and the newly biosynthesized estrogens, were adsorbed on charcoal; only ^3H-water specifically formed during aromatisation of 1β-^3H-androstenedione, remained in the supernatant. The radioactivity in the supernatant was measured by liquid scintillation counting. In parallel, cell solubilization was performed in ethylenediamine tetraacetate solution. […]

CC(C)(C#N)c1cc(Cn2cncn2)cc(C(C)(C)C#N)c1 [anastrozole, reference compound]
IC50 (human aromatase [1]): 2.5 ± 0.6 nM
IC50 (human aromatase [2]): 6.93 ± 1.07 nM
